At least one structure is not confirmed: it was looked up by name or label, or the drawing left a doubt.
Test system: paranasal sinus mucosa
Test: Effects of topical vitamin A gel on regeneration of paranasal sinus mucosa in mechanically denuded rabbit maxillary sinuses (light microscopy after 14 days)
Assay type: in vivo, New Zealand White Rabbits
[1] = high concentration group (about 0.025%), day 14
[2] = low concentration group (about 0.01%), day 14
[3] = topical vitamin A gel, summary of both concentrations

CC1=C(/C=C/C(C)=C/C=C/C(C)=C/C(=O)O)C(C)(C)CCC1 [vitamin A, retinoic acid]
morphology of both concentration groups compared to no treatment (about 0.01% w/v and 0.025% w/v): both were improved
mucosal and ciliary regeneration of stripped paranasal sinus mucosa (both high (about 0.025%) and low (about 0.01%) concentrations, topical aqueous gel, day 14): substantially improved mucosal and ciliary regeneration
ciliary morphology and density compared to normal, non-stripped controls (both vitamin A groups, day 14): grossly normal in appearance but slightly diminished in number
degree of cellular and ciliary abnormality compared to stripped controls (both vitamin A groups, day 14): markedly diminished
denuded mucosal segments (both vitamin A groups, day 14): no frankly denuded segments
fibrosis compared to stripped, untreated controls (both vitamin A groups, day 14): substantially less fibrosis
fibrosis of the basal lamina and lamina propria compared to normals (both vitamin A groups, day 14): increased fibrosis of the basal lamina and lamina propria
goblet cell to ciliated cell ratio compared to normals (both vitamin A groups, day 14): increased goblet cell to ciliated cell ratio
morphology of regenerated mucosa (both vitamin A groups, day 14): still grossly abnormal
serous gland layer (both vitamin A groups, day 14): relative loss of the serous gland layer
confirmation of results in further experiments with a non-medicated aqueous gel control group (control group receiving gel vehicle without vitamin A, electron micrographs, 14 days): entirely confirmed
histologic atypia and heterogeneity in the cellular layer compared to low concentration and normal groups [1]: more histologic atypia and heterogeneity in the cellular layer
mucociliary blanket coverage compared to stripped, untreated controls [1]: substantially more normal mucociliary blanket coverage
reactive fibrosis in basal lamina and lamina propria compared to stripped, untreated controls [1]: less reactive fibrosis in the basal lamina and lamina propria
overall morphology compared to stripped, untreated control group (higher concentration group (about 0.025%), day 14): dramatically improved
density of regenerated cilia, low versus high concentration group (low concentration group (about 0.01%) compared to high (about 0.025%), day 14): greater density of regenerated cilia
basal lamina fibrosis and submucosal serous glands [2]: basal lamina fibrosis and loss of submucosal serous glands
mucociliary blanket [2]: near normal mucociliary blanket qualitatively
morphology, lower versus higher concentration group (lower concentration (about 0.01%) compared to higher (0.025%), day 14): more favorable morphology
appearance of mucocilliary blanket of regenerated mucosa [3]: near normal in appearance
mucosal regeneration compared to untreated regenerated mucosa [3]: substantially more normal mucosal regeneration marked by less cellular atypia and fibrosis
cellular atypia and fibrosis compared to stripped, untreated control group (treated sinuses, both concentrations, day 14): less cellular atypia and fibrosis
